In the supplement of paper PMC8728848:
The list shows a part of the results.

Experiments:
Experiment in all cases: glycan array binding signal (z-score within array); higher = stronger binding
Settings in all cases: glycan notation: IUPAC condensed, linker removed
[1] = target: Gal(a1-3)Gal(b1-4)GlcNAc(b1-2)Man
Outline: (§1)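 Columns mapping to the same glycan were averaged after glycan names were converted to IUPAC-condensed notation. The data come from 3228 arrays in the Consortium for Functional Glycomics database, limited to those with an available protein sequence. Binding is reported as a within-array Z-score averaged across arrays of one protein sequence and across linkers.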

[2] = target: Gal(a1-3)Gal(b1-4)GlcNAc(b1-2)Man(a1-3)[Gal(a1-3)Gal(b1-4)GlcNAc(b1-2)Man(a1-6)]Man(b1-4)GlcNAc(b1-4)GlcNAc
Outline: as §1

[3] = target: Gal(a1-3)Gal(b1-4)GlcNAc(b1-3)GalNAc
Outline: as §1

[4] = target: Gal(a1-3)Gal(b1-4)GlcNAc(b1-6)GalNAc
Outline: as §1

[5] = target: Gal(a1-3)Gal(b1-4)[Fuc(a1-3)]GlcNAc
Outline: as §1

[6] = target: Gal(a1-3)Gal(b1-4)[Fuc(a1-3)]GlcNAc(b1-2)Man(a1-3)[Gal(a1-3)Gal(b1-4)[Fuc(a1-3)]GlcNAc(b1-2)Man(a1-6)]Man(b1-4)GlcNAc(b1-4)GlcNAc
Outline: as §1

[7] = target: Gal(a1-3)GalNAc
Outline: as §1

[8] = target: Gal(a1-3)[Gal(a1-4)]Gal(b1-4)GlcNAc
Outline: as §1

[9] = target: Gal(a1-4)Gal(b1-3)GlcNAc(b1-2)Man(a1-3)[Gal(a1-4)Gal(b1-3)GlcNAc(b1-2)Man(a1-6)]Man(b1-4)GlcNAc(b1-4)GlcNAc
Outline: as §1

[10] = target: Gal(a1-4)Gal(b1-4)Glc
Outline: as §1

[11] = target: Gal(a1-4)Gal(b1-4)GlcNAc
Outline: as §1

[12] = target: Gal(a1-4)Gal(b1-4)GlcNAc(b1-2)Man(a1-3)[Gal(a1-4)Gal(b1-4)GlcNAc(b1-2)Man(a1-6)]Man(b1-4)GlcNAc(b1-4)GlcNAc
Outline: as §1

[13] = target: Gal(a1-4)Gal(b1-4)GlcNAc(b1-3)Gal(b1-4)Glc
Outline: as §1

[14] = target: Gal(a1-4)GlcNAc
Outline: as §1

[15] = target: Gal(a1-6)Glc
Outline: as §1

[16] = target: Gal(b1-2)Gal
Outline: as §1

[17] = target: Gal(b1-3)Gal
Outline: as §1

[18] = target: Gal(b1-3)Gal(b1-4)GlcNAc
Outline: as §1

[19] = target: Gal(b1-3)GalNAc
Outline: as §1

[20] = target: Gal(b1-3)GalNAc(a1-3)[Fuc(a1-2)]Gal(b1-4)Glc
Outline: as §1

[21] = target: Gal(b1-3)GalNAc(a1-3)[Fuc(a1-2)]Gal(b1-4)GlcNAc
Outline: as §1

[22] = target: Gal(b1-3)GalNAc(b1-3)Gal
Outline: as §1

[23] = target: Gal(b1-3)GalNAc(b1-3)Gal(a1-4)Gal(b1-4)Glc
Outline: as §1

[24] = target: Gal(b1-3)GalNAc(b1-4)Gal(b1-4)Glc
Outline: as §1

[25] = target: Gal(b1-3)GalNAc(b1-4)[Neu5Ac(a2-3)]Gal(b1-4)Glc
Outline: as §1

[26] = target: Gal(b1-3)GlcNAc
Outline: as §1

[27] = target: Gal(b1-3)GlcNAc(a1-3)Gal(b1-4)GlcNAc
Outline: as §1

[28] = target: Gal(b1-3)GlcNAc(a1-6)Gal(b1-4)GlcNAc
Outline: as §1

[29] = target: Gal(b1-3)GlcNAc(b1-2)Man
Outline: as §1

[30] = target: Gal(b1-3)GlcNAc(b1-2)Man(a1-3)[Gal(b1-3)GlcNAc(b1-2)Man(a1-6)]Man(b1-4)GlcNAc(b1-4)GlcNAc
Outline: as §1

[31] = target: Gal(b1-3)GlcNAc(b1-2)Man(a1-3)[Gal(b1-3)GlcNAc(b1-2)Man(a1-6)]Man(b1-4)GlcNAc(b1-4)[Fuc(a1-6)]GlcNAc
Outline: as §1

[32] = target: Gal(b1-3)GlcNAc(b1-2)Man(a1-3)[GlcNAc(b1-4)][Gal(b1-3)GlcNAc(b1-2)Man(a1-6)]Man(b1-4)GlcNAc(b1-4)GlcNAc
Outline: as §1

[33] = target: Gal(b1-3)GlcNAc(b1-2)[Gal(b1-3)GlcNAc(b1-6)]Man(a1-6)[Gal(b1-3)GlcNAc(b1-2)Man(a1-3)]Man(b1-4)GlcNAc(b1-4)GlcNAc
Outline: as §1

[34] = target: Gal(b1-3)GlcNAc(b1-3)Gal(b1-3)GlcNAc
Outline: as §1

[35] = target: Gal(b1-3)GlcNAc(b1-3)Gal(b1-4)Glc
Outline: as §1

[36] = target: Gal(b1-3)GlcNAc(b1-3)Gal(b1-4)GlcNAc
Outline: as §1

[37] = target: Gal(b1-3)GlcNAc(b1-3)Gal(b1-4)GlcNAc(b1-2)Man(a1-3)[Gal(b1-3)GlcNAc(b1-3)Gal(b1-4)GlcNAc(b1-2)Man(a1-6)]Man(b1-4)GlcNAc(b1-4)GlcNAc
Outline: as §1

B1: HopZSSI-T (Helicobacter pylori), B5Z6D0 (protein)
chain: MGSSHHHHHHSSGLVPRGSHMENLYFQGEDNGFFISAGYQIGEAAQMVKNTGELKKLSDTYENLSNLLTNFNNLNQAVTNASSPSEINAAIDNLKANTQGLTGEKTNSPAYQAVYLALNAAVGLWNVIAYNVQCGPGNSSQQSVTFEGQPGHNSSSINCNLTGYNNGVSGPLSIDNFKQLNQAYQVLQQALKQGVPVLNNTNQKIEVKVTTQTNGQSSKETTTTTTTNDAQTLLQEASKMIDVLTTNCPWVNHNPGQNGGAPWGLIRQECVSGFATEFSAVTSMIKNAQEIVTQAQSLNANQNNQNAPQDFNPYTSADRAFAQNMLNHAQAQAKILELADQMKKDLNTIPSQFITNYLAACRIDGTTPSQGVTNNTWGAGCAYVEETITALNNSLAHFGTQAEQIKQSELLARTILDFRGSLSTLNSTYNSITTTASNTPNSPFLKNLISQSTNPNNPGGLQAVYQVNQSAYSQLLSATQELGHNPFRRIGLISSQT
Question: With B1 as the binder, how does the “glycan array binding signal (z-score)” value [1] read?
Answer: The value was -0.247.

Question: What about the “glycan array binding signal (z-score)” value [2] of the same binder?
Answer: The value was 0.503.

Question: What about the “glycan array binding signal (z-score)” value [3] of the same binder?
Answer: Its value is -0.615.

Question: And the “glycan array binding signal (z-score)” value [4]?
Answer: The value was -0.368.

Question: And the “glycan array binding signal (z-score)” value [5]?
Answer: Its value is -0.695.

Question: And the “glycan array binding signal (z-score)” value [6]?
Answer: Its value is -0.295.

Question: And the “glycan array binding signal (z-score)” value [7]?
Answer: The value was -0.363.

Question: And the “glycan array binding signal (z-score)” value [8]?
Answer: Its value is -0.305.

Question: And the “glycan array binding signal (z-score)” value [9]?
Answer: The value was 0.078.

Question: And the “glycan array binding signal (z-score)” value [10]?
Answer: The value was 0.988.

Question: And the “glycan array binding signal (z-score)” value [11]?
Answer: Its value is 0.912.

Question: And the “glycan array binding signal (z-score)” value [12]?
Answer: Its value is 0.08.

Question: And the “glycan array binding signal (z-score)” value [13]?
Answer: The value was 0.496.

Question: And the “glycan array binding signal (z-score)” value [14]?
Answer: Its value is 0.464.

Question: What about the “glycan array binding signal (z-score)” value [15] of the same binder?
Answer: The value was 1.05.

Question: And the “glycan array binding signal (z-score)” value [16]?
Answer: The value was -0.182.

Question: And the “glycan array binding signal (z-score)” value [17]?
Answer: Its value is -0.502.

Question: And the “glycan array binding signal (z-score)” value [18]?
Answer: Its value is -0.409.

Question: And the “glycan array binding signal (z-score)” value [19]?
Answer: Its value is -0.208.

Question: What about the “glycan array binding signal (z-score)” value [20] of the same binder?
Answer: The value was 0.567.

Question: What about the “glycan array binding signal (z-score)” value [21] of the same binder?
Answer: Its value is -0.081.

Question: What about the “glycan array binding signal (z-score)” value [22] of the same binder?
Answer: The value was 0.608.

Question: What about the “glycan array binding signal (z-score)” value [23] of the same binder?
Answer: Its value is -0.481.

Question: And the “glycan array binding signal (z-score)” value [24]?
Answer: Its value is -0.498.

Question: And the “glycan array binding signal (z-score)” value [25]?
Answer: Its value is 0.199.

Question: And the “glycan array binding signal (z-score)” value [26]?
Answer: The value was -0.649.

Question: What about the “glycan array binding signal (z-score)” value [27] of the same binder?
Answer: The value was -0.041.

Question: And the “glycan array binding signal (z-score)” value [28]?
Answer: The value was -0.467.

Question: And the “glycan array binding signal (z-score)” value [29]?
Answer: Its value is -0.724.

Question: And the “glycan array binding signal (z-score)” value [30]?
Answer: Its value is 0.829.

Question: And the “glycan array binding signal (z-score)” value [31]?
Answer: Its value is 0.625.

Question: And the “glycan array binding signal (z-score)” value [32]?
Answer: Its value is 0.204.

Question: And the “glycan array binding signal (z-score)” value [33]?
Answer: The value was 0.014.

Question: And the “glycan array binding signal (z-score)” value [34]?
Answer: The value was -0.42.

Question: And the “glycan array binding signal (z-score)” value [35]?
Answer: Its value is -0.931.

Question: And the “glycan array binding signal (z-score)” value [36]?
Answer: The value was -0.249.

Question: What about the “glycan array binding signal (z-score)” value [37] of the same binder?
Answer: The value was -0.169.
